Results reported in patent publication US20070128121A1, “Polymer hydrogels for controlled release and absorption of biocides” (The Regents of the University of California, priority 2005, published 2007).
At least one structure is not confirmed: it was looked up by name or label, or the drawing left a doubt.

Assay: CPC release in deionized water with varying AMPSA content (FIG. 1)
Assay type: physicochemical
Settings: before a stable linear release is achieved

Which “time for burst release to be complete” value does the source give for `CCCCCCCCCCCCCCCC[n+]1ccccc1` [CPC, cetylpyridinium chloride] here?
Its value is at most 24 h.
